Reference: PMC10112980
Results are given in words; binding and its absence hold for the method and conditions named. Binding seen in cells or lysates may run through a third protein. Some entries that bind do so weakly or less than the wild type. Blank lines part the entries; values can stand above or below the binder they belong to.

What was measured:
[1] = biological target: T1, SUN4 (mouse (endogenous in testis cells)) (UniProt Q9JJF2); assay: co-IP; testicular cells of wild-type mice; membranes isolated by 8 M urea extraction and centrifugation at 100,000 g, dissolved in RIPA buffer; rabbit anti-SUN4 (NTD) antibody, non-specific rabbit IgG as control; Dynabeads Protein G; western blot
T1 sequence: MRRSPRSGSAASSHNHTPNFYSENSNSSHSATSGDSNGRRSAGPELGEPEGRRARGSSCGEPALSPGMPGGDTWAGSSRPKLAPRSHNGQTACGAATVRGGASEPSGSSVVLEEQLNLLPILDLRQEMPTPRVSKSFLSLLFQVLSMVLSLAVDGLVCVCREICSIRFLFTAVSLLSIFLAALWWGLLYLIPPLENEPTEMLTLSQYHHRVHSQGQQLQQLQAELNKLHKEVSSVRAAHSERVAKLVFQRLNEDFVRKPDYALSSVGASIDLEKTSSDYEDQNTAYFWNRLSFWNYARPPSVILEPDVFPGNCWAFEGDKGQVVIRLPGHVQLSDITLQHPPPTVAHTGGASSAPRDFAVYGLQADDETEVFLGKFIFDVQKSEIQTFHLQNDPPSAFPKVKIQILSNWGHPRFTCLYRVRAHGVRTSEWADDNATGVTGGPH

[2] = biological target: T1, SUN4 (mouse (endogenous in testis cells)); assay: co-IP; testicular cells of wild-type mice lysed directly in RIPA buffer; guinea pig anti-SUN4 NTD antibody, non-specific guinea pig IgG as control; Dynabeads Protein G, 4°C; western blot

binding [1]: no binding
B1: lamina-associated protein LAP2 (protein, UniProt Q61029 1-452)
chain: MPEFLEDPSVLTKDKLKSELVANNVTLPAGEQRKDVYVQLYLQHLTARNRPPLAAGANSKGPPDFSSDEEREPTPVLGSGASVGRGRGAVGRKATKKTDKPRLEDKDDLDVTELSNEELLDQLVRYGVNPGPIVGTTRKLYEKKLLKLREQGTESRSSTPLPTVSSSAENTRQNGSNDSDRYSDNDEDSKIELKLEKREPLKGRAKTPVTLKQRRTEHNQSYSQAGVTETEWTSGSSTGGPLQALTRESTRGSRRTPRKRVETSQHFRIDGAVISESTPIAETIKASSNESLVANRLTGNFKHASSILPITEFSDITRRTPKKPLTRAEVGEKTEERRVDRDILKEMFPYEASTPTGISASCRRPIKGAAGRPLELSDFRMEESFSSKYVPKYAPLADVKSEKTKKRRSVPMWIKMLLFALVAVFLFLVYQAMETNQGNPFTNFLQDTKISN

binding [1]: no binding
B2: SUN1 (protein, UniProt Q9D666 1-913)
chain: MDFSRLHTYTPPQCVPENTGYTYALSSSYSSDALDFETEHKLEPVFDSPRMSRRSLRLVTTASYSSGDSQAIDSHISTSRATPAKGRETRTVKQRRSASKPAFSINHLSGKGLSSSTSHDSSCSLRSATVLRHPVLDESLIREQTKVDHFWGLDDDGDLKGGNKAATQGNGELAAEVASSNGYTCRDCRMLSARTDALTAHSAIHGTTSRVYSRDRTLKPRGVSFYLDRTLWLAKSTSSSFASFIVQLFQVVLMKLNFETYKLKGYESRAYESQSYETKSHESEAHLGHCGRMTAGELSRVDGESLCDDCKGKKHLEIHTATHSQLPQPHRVAGAMGRLCIYTGDLLVQALRRTRAAGWSVAEAVWSVLWLAVSAPGKAASGTFWWLGSGWYQFVTLISWLNVFLLTRCLRNICKVFVLLLPLLLLLGAGVSLWGQGNFFSLLPVLNWTAMQPTQRVDDSKGMHRPGPLPPSPPPKVDHKASQWPQESDMGQKVASLSAQCHNHDERLAELTVLLQKLQIRVDQVDDGREGLSLWVKNVVGQHLQEMGTIEPPDAKTDFMTFHHDHEVRLSNLEDVLRKLTEKSEAIQKELEETKLKAGSRDEEQPLLDRVQHLELELNLLKSQLSDWQHLKTSCEQAGARIQETVQLMFSEDQQGGSLEWLLEKLSSRFVSKDELQVLLHDLELKLLQNITHHITVTGQAPTSEAIVSAVNQAGISGITEAQAHIIVNNALKLYSQDKTGMVDFALESGGGSILSTRCSETYETKTALLSLFGVPLWYFSQSPRVVIQPDIYPGNCWAFKGSQGYLVVRLSMKIYPTTFTMEHIPKTLSPTGNISSAPKDFAVYGLETEYQEEGQPLGRFTYDQEGDSLQMFHTLERPDQAFQIVELRVLSNWGHPEYTCLYRFRVHGEPIQ

binding [1]: binds
B3: SUN3 (protein, UniProt Q5SS91 1-320)
chain: MLTRSWKIILSTVFISTFLLVGLLNHQWLKETEFPQKPRQLYTVIAEYGSRLYNYQARLRMPKEQQELLKKESQTLENNFREILFLIEQIDVLKALLKDMKDGVHNHSLPVHRDAVQDQATTDVLDEEMSNLVHYVLKKFRGDQIQLADYALKSAGASVIEAGTSESYKNNKAKLYWHGIGFLNYEMPPDMILQPDVHPGKCWAFPGSQGHILIKLARKIIPTAVTMEHISEKVSPSGNISSAPKEFSVYGVMKKCEGEEIFLGQFIYNKMEATIQTFELQNEASESLLCVKLQILSNWGHPKYTCLYRFRVHGIPSDYT

binding [2]: binds
B4: lamin B3 (protein, UniProt P21619-2 1-474)
chain: MGESESMRGTGEGCGRDCPEAARPLMETVEGALPELRGRPLREYVKRRPRGLGKTPVEDPVKSEGAVGYPRTWNNHLRVPTREQEVRETRRRHERRLVEVDSSRQQEYDFKMAQALEDLRSQHDEQVRLYRVELEQTYQAKLDNAKLLSDQNDKAAHAAREELKEARMRVESLSYQLLGLQKQASAAENHIHELEEALAGERDKFRKMLDAKEQEMTEVRDAMQQQLAEYQELLDIKLALDMEISAYRKLLEGEEERLKLSPSPSSRITISRATSSSSSSSGVGMSVGQGRGKRRRLETEDTSGSPSRASRVSSGSRLAQQTVATGVVNIDEVDPEGRFVRLKNSSDKDQSLGNWRIKRQVLEGEDIAYKFTPKYVLRAGQTVTVWAAGAGATHSPPSTLVWKSQTNWGPGESFRTALVSADGEEVAVKAAKHSSVQGRENGEEEEEEEAEFGEEDLFHQQGDPRTTSRGCRLM
